We go through 22 compounds from the supplement of paper PMC10470496.

Where a name gives a salt, the structure may show the parent alone. The list shows a part of the results. Repeats are few or missing, and single values can be far off.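 The strains were three CDC resistance-bank clinical C. auris isolates from clades III, IV and I, cultured in RPMI-1640 at 35°C. Growth was background-corrected OD600 versus vehicle-only wells on the same plate. A hit needed >50% inhibition in two or more strains plus a plate-corrected B-score exceeding 0.1.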

Among the test systems are C. auris AR-384; C. auris AR-386; C. auris AR-387.
Common to all, as to assay: growth relative to vehicle control (OD600 ratio) (fraction); higher = less inhibition
What all share (details): 24 h

`Cc1c(-c2cnccn2)ssc1=S` [Oltipraz]: the growth was 0.85 with C. auris AR-384 (1 µM); 0.65 in the test with C. auris AR-384 (10 µM); 0.72 with C. auris AR-386 (1 µM); 0.82 with C. auris AR-386 (10 µM); 0.75 with C. auris AR-387 (1 µM); 0.76 in the test with C. auris AR-387 (10 µM).

With `COc1ccc(C(=O)NCc2ccc(OCCN(C)C)cc2)cc1OC` [Itopride hydrochloride], the growth in the test on C. auris AR-384 (1 µM) was found to be 1.22; in the test with C. auris AR-384 (10 µM), 1.02; in the test with C. auris AR-386 (1 µM), 1.43; with C. auris AR-386 (10 µM) it was 1.33; in the test on C. auris AR-387 (1 µM) it was 1.19; in the test with C. auris AR-387 (10 µM), 1.17.

As to `CC(=O)OC/C=C(C)/C=C/C=C(C)/C=C/C1=C(C)CCCC1(C)C` [Vitamin A Acetate], the growth worked out at 1.28 with C. auris AR-384 (1 µM); 0.94 in the test on C. auris AR-384 (10 µM); 1.34 with C. auris AR-386 (1 µM); 0.84 with C. auris AR-386 (10 µM); 1 in the test on C. auris AR-387 (1 µM); 0.77 in the test with C. auris AR-387 (10 µM).

In the case of `O=c1n(CCCN2CCN(c3cccc(Cl)c3)CC2)nc2ccccn12` [Trazodone HCl], the growth in the test with C. auris AR-384 (1 µM) is 0.93; with C. auris AR-384 (10 µM), 1.13; with C. auris AR-386 (1 µM), 1.17; in the test with C. auris AR-386 (10 µM) it was 1.41; in the test with C. auris AR-387 (1 µM), 1.54; in the test with C. auris AR-387 (10 µM) it was 1.32.

`O=C(O)c1cccc(-c2noc(-c3ccccc3F)n2)c1` [Ataluren (PTC124)]: the growth in the test on C. auris AR-384 (1 µM) was determined as 1.26; with C. auris AR-384 (10 µM), 1.54; with C. auris AR-386 (1 µM) it was 1.44; with C. auris AR-386 (10 µM), 1.41; in the test on C. auris AR-387 (1 µM), 1.24; in the test on C. auris AR-387 (10 µM), 1.22.

With `c1cc(CN2CCCNCCNCCCNCC2)ccc1CN1CCCNCCNCCCNCC1` [Plerixafor 8HCl (AMD3100 8HCl)], the growth in the test with C. auris AR-384 (1 µM) was 1.33; with C. auris AR-384 (10 µM), 1.5; in the test with C. auris AR-386 (1 µM) it was 1.13; with C. auris AR-386 (10 µM), 1.16; in the test with C. auris AR-387 (1 µM), 0.9; with C. auris AR-387 (10 µM), 1.24.

For the compound `C#Cc1cccc(Nc2ncnc3cc(OCCOC)c(OCCOC)cc23)c1` [Erlotinib], the growth in the test with C. auris AR-384 (1 µM) was 0.74; with C. auris AR-384 (10 µM), 0.82; in the test on C. auris AR-386 (1 µM), 0.71; in the test on C. auris AR-386 (10 µM), 0.74; in the test on C. auris AR-387 (1 µM), 0.59; in the test with C. auris AR-387 (10 µM), 0.61.

Consider `Nc1ccccc1NC(=O)c1ccc(CNc2nccc(-c3cccnc3)n2)cc1` [Mocetinostat (MGCD0103)], for which the growth in the test with C. auris AR-384 (1 µM) came to 0.83; in the test on C. auris AR-384 (10 µM), 0.9; in the test on C. auris AR-386 (1 µM) it was 0.79; with C. auris AR-386 (10 µM) it was 0.74; in the test with C. auris AR-387 (1 µM), 0.71; with C. auris AR-387 (10 µM), 0.62.

As to `CC[C@@H]1C(=O)OC[C@@H]1Cc1cncn1C` [Pilocarpine HCl], the growth amounted to 1.03 in the test on C. auris AR-384 (1 µM); 0.86 with C. auris AR-384 (10 µM); 1.33 in the test with C. auris AR-386 (1 µM); 0.88 in the test with C. auris AR-386 (10 µM); 0.89 in the test with C. auris AR-387 (1 µM); 0.63 in the test on C. auris AR-387 (10 µM).

For the compound `COc1cccc2c1C(=O)c1c(O)c3c(c(O)c1C2=O)C[C@@](O)(C(C)=O)C[C@@H]3O[C@H]1C[C@H](N)[C@H](O)[C@H](C)O1` [Daunorubicin HCl], the growth in the test with C. auris AR-384 (1 µM) came to 0.97; in the test with C. auris AR-384 (10 µM), 0.77; in the test with C. auris AR-386 (1 µM), 0.75; in the test on C. auris AR-386 (10 µM), 0.48; in the test on C. auris AR-387 (1 µM), 0.53; in the test on C. auris AR-387 (10 µM), 0.54.

`COc1ccccc1N1CCN(CCCNc2cc(=O)n(C)c(=O)n2C)CC1` [Urapidil HCl]: the growth was determined as 0.78 with C. auris AR-384 (1 µM); 1.03 in the test with C. auris AR-384 (10 µM); 1.05 in the test on C. auris AR-386 (1 µM); 1.01 in the test with C. auris AR-386 (10 µM); 1.39 in the test with C. auris AR-387 (1 µM); 1.13 in the test on C. auris AR-387 (10 µM).

`CC(C)Oc1ccc(-c2nc(-c3cccc4c3CC[C@@H]4NCCO)no2)cc1C#N` [Ozanimod (RPC1063)]: the growth with C. auris AR-384 (1 µM) came out at 1.06; in the test on C. auris AR-384 (10 µM), 1.2; in the test on C. auris AR-386 (1 µM), 0.86; in the test on C. auris AR-386 (10 µM), 1.15; with C. auris AR-387 (1 µM) it was 0.82; with C. auris AR-387 (10 µM) it was 0.9.

In the case of `NC(=O)CC[C@@H](N)C(=O)O` [D-Glutamine], the growth in the test with C. auris AR-384 (1 µM) is 1.04; in the test on C. auris AR-384 (10 µM) it was 1.09; in the test on C. auris AR-386 (1 µM) it was 0.97; with C. auris AR-386 (10 µM), 1.2; in the test with C. auris AR-387 (1 µM), 1.04; in the test on C. auris AR-387 (10 µM) it was 1.05.

In the case of `CN(C)CCC(c1ccc(Br)cc1)c1ccccn1` (configuration not stated) [Brompheniramine hydrogen maleate], the growth in the test with C. auris AR-384 (1 µM) is 0.82; in the test on C. auris AR-384 (10 µM), 0.83; in the test on C. auris AR-386 (1 µM), 0.8; in the test on C. auris AR-386 (10 µM) it was 0.5; in the test on C. auris AR-387 (1 µM) it was 0.85; in the test with C. auris AR-387 (10 µM), 0.57.

For `C[C@H](N[C@@H](CCc1ccccc1)C(=O)O)C(=O)N1CCC[C@H]1C(=O)O` [Enalaprilat Dihydrate], the growth in the test on C. auris AR-384 (1 µM) worked out at 0.73; in the test on C. auris AR-384 (10 µM) it was 1.16; with C. auris AR-386 (1 µM) it was 0.96; in the test on C. auris AR-386 (10 µM), 0.84; in the test on C. auris AR-387 (1 µM) it was 0.83; in the test with C. auris AR-387 (10 µM), 1.01.

Consider `CC(=O)Oc1ccc(C(c2ccc(OC(C)=O)cc2)c2ccccn2)cc1` [Bisacodyl], for which the growth worked out at 1.03 in the test on C. auris AR-384 (1 µM); 0.82 in the test on C. auris AR-384 (10 µM); 0.91 with C. auris AR-386 (1 µM); 0.9 in the test on C. auris AR-386 (10 µM); 0.71 in the test with C. auris AR-387 (1 µM); 0.72 in the test on C. auris AR-387 (10 µM).

With `CNS(=O)(=O)Cc1ccc2[nH]cc(CCN(C)C)c2c1` [Sumatriptan Succinate], the growth in the test with C. auris AR-384 (1 µM) turned out to be 0.97; with C. auris AR-384 (10 µM) it was 0.49; in the test on C. auris AR-386 (1 µM) it was 0.53; with C. auris AR-386 (10 µM), 1.07; in the test on C. auris AR-387 (1 µM), 0.86; in the test on C. auris AR-387 (10 µM) it was 0.92.

Turning to `O=c1[nH]c(=O)n([C@H]2C[C@H](O)[C@@H](CO)O2)cc1C(F)(F)F` [Trifluridine], the growth in the test on C. auris AR-384 (1 µM) came out at 0.88; in the test on C. auris AR-384 (10 µM), 0.89; with C. auris AR-386 (1 µM), 0.97; in the test with C. auris AR-386 (10 µM), 0.81; in the test on C. auris AR-387 (1 µM) it was 0.95; in the test with C. auris AR-387 (10 µM), 0.86.

Consider `Nc1cccc2c1CN(C1CCC(=O)NC1=O)C2=O` (configuration not stated) [Lenalidomide (CC-5013)], for which the growth in the test on C. auris AR-384 (1 µM) is 0.75; with C. auris AR-384 (10 µM) it was 0.53; with C. auris AR-386 (1 µM), 0.6; in the test on C. auris AR-386 (10 µM) it was 0.92; with C. auris AR-387 (1 µM) it was 0.8; in the test with C. auris AR-387 (10 µM), 0.76.

In the case of `CC(=O)Nc1ccccc1` [Acetanilide], the growth stood at 0.88 in the test with C. auris AR-384 (1 µM); 0.92 with C. auris AR-384 (10 µM); 0.9 with C. auris AR-386 (1 µM); 0.9 with C. auris AR-386 (10 µM); 1.04 with C. auris AR-387 (1 µM); 1.03 in the test on C. auris AR-387 (10 µM).

Turning to `COc1cc2c(cc1OC)CC(=O)N(CCCN(C)C[C@H]1Cc3cc(OC)c(OC)cc31)CC2` [Ivabradine HCl], the growth in the test with C. auris AR-384 (1 µM) turned out to be 0.89; in the test with C. auris AR-384 (10 µM), 0.85; in the test on C. auris AR-386 (1 µM), 0.82; in the test with C. auris AR-386 (10 µM) it was 0.83; in the test with C. auris AR-387 (1 µM) it was 1.16; in the test with C. auris AR-387 (10 µM) it was 1.13.

For `Cc1nccn1CC1CCc2c(c3ccccc3n2C)C1=O` (configuration not stated) [Ondansetron HCl], the growth in the test on C. auris AR-384 (1 µM) was 0.68; with C. auris AR-384 (10 µM), 0.93; in the test with C. auris AR-386 (1 µM), 0.89; in the test with C. auris AR-386 (10 µM), 0.97; in the test on C. auris AR-387 (1 µM), 0.75; in the test with C. auris AR-387 (10 µM) it was 0.95.
